PubChem BioAssay AID1259405 – NCATS | 2018

Purpose: 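Mouse-designed siRNAs used to find CHO productivity engineering targets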 (primary screen)
Cells: Chinese hamster CHO-K1 ovary cells with stable secreted eGFP expression
Knock-down reagent: single siRNA against mouse genes, 0.8 pmol siRNA per well (2 µl of 400 nM stock)
Timing: 3 days
Measurement: 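Percent of the per-plate non-targeting control median for intracellular GFP per well by laser scanning cytometry and for cell viability by ATP luminescence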
Reading the numbers: GFP, % of control: higher = more GFP per well, higher productivity; viability (ATP), % of control: higher = more viable cells (more ATP)
Rule for the call: 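Called active when intracellular GFP, relative to negative control, is at or above 120%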
Shown is an unselected part of about 50,000 reagents tested. About 4,000 of them (8%) count as active. 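Mouse siRNA library applied to hamster cells; one well for each siRNA.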 A number with no mark means an inactive call. Reagents against one gene are numbered here.

{"gene": "Tuba1c (GeneID 22146)", "reagent no.": 1, "GFP, % of control": 91.1, "viability (ATP), % of control": 70.9}
{"gene": "Tuba1c (GeneID 22146)", "reagent no.": 2, "GFP, % of control": 58.2, "viability (ATP), % of control": 82}
{"gene": "Fgfr4 (GeneID 14186)", "reagent no.": 1, "GFP, % of control": 109, "viability (ATP), % of control": 84.9}
{"gene": "Utp3 (GeneID 65961)", "reagent no.": 1, "GFP, % of control": 73.3, "viability (ATP), % of control": 51.6}
{"gene": "Utp3 (GeneID 65961)", "reagent no.": 2, "GFP, % of control": 83.8, "viability (ATP), % of control": 82.9}
{"gene": "Utp3 (GeneID 65961)", "reagent no.": 3, "GFP, % of control": 59.1, "viability (ATP), % of control": 66.2}
{"gene": "Arl11 (GeneID 219144)", "reagent no.": 1, "GFP, % of control": 102, "viability (ATP), % of control": 72.4}
{"gene": "Arl11 (GeneID 219144)", "reagent no.": 2, "GFP, % of control": 86.3, "viability (ATP), % of control": 77.3}
{"gene": "Arl11 (GeneID 219144)", "reagent no.": 3, "GFP, % of control": 114, "viability (ATP), % of control": 86.3}
{"gene": "Clip2 (GeneID 269713)", "reagent no.": 1, "GFP, % of control": 47.3, "viability (ATP), % of control": 32.3}
{"gene": "Clip2 (GeneID 269713)", "reagent no.": 2, "GFP, % of control": 89.6, "viability (ATP), % of control": 85}
{"gene": "Clip2 (GeneID 269713)", "reagent no.": 3, "GFP, % of control": 66.7, "viability (ATP), % of control": 66.1}
{"gene": "Yju2 (GeneID 72886)", "reagent no.": 1, "GFP, % of control": 97.1, "viability (ATP), % of control": 96.5}
{"gene": "Yju2 (GeneID 72886)", "reagent no.": 2, "GFP, % of control": 76.9, "viability (ATP), % of control": 39.8}
{"gene": "Yju2 (GeneID 72886)", "reagent no.": 3, "GFP, % of control": 44.8, "viability (ATP), % of control": 73}
{"gene": "Ugt1a9 (GeneID 394434)", "reagent no.": 1, "GFP, % of control": 107, "viability (ATP), % of control": 73.5}
{"gene": "Ugt1a9 (GeneID 394434)", "reagent no.": 2, "GFP, % of control": 107, "viability (ATP), % of control": 107}
{"gene": "Ugt1a9 (GeneID 394434)", "reagent no.": 3, "GFP, % of control": 41.8, "viability (ATP), % of control": 61.5}
{"gene": "Hrg (GeneID 94175)", "reagent no.": 1, "GFP, % of control": 44.7, "viability (ATP), % of control": 68.2}
{"gene": "Hrg (GeneID 94175)", "reagent no.": 2, "GFP, % of control": 87.3, "viability (ATP), % of control": 61.7}
{"gene": "Hrg (GeneID 94175)", "reagent no.": 3, "GFP, % of control": 108, "viability (ATP), % of control": 117}
{"gene": "Kcnh5 (GeneID 238271)", "reagent no.": 1, "GFP, % of control": "173 (active)", "viability (ATP), % of control": 109}
{"gene": "Kcnh5 (GeneID 238271)", "reagent no.": 2, "GFP, % of control": 69.2, "viability (ATP), % of control": 32.6}
{"gene": "Kcnh5 (GeneID 238271)", "reagent no.": 3, "GFP, % of control": 84.4, "viability (ATP), % of control": 75.3}
{"gene": "Tubb4b (GeneID 227613)", "reagent no.": 1, "GFP, % of control": 95.7, "viability (ATP), % of control": 93.4}
{"gene": "Tubb4b (GeneID 227613)", "reagent no.": 2, "GFP, % of control": 91, "viability (ATP), % of control": 85.3}
{"gene": "Tceal8 (GeneID 66684)", "reagent no.": 1, "GFP, % of control": "126 (active)", "viability (ATP), % of control": 115}
{"gene": "Tceal8 (GeneID 66684)", "reagent no.": 2, "GFP, % of control": 67.3, "viability (ATP), % of control": 69.9}
{"gene": "Tceal8 (GeneID 66684)", "reagent no.": 3, "GFP, % of control": 58.7, "viability (ATP), % of control": 96.7}
{"gene": "Or10d1c (GeneID 258434)", "reagent no.": 1, "GFP, % of control": 87.7, "viability (ATP), % of control": 54.1}
{"gene": "Or10d1c (GeneID 258434)", "reagent no.": 2, "GFP, % of control": 97.6, "viability (ATP), % of control": 54.2}
{"gene": "Or10d1c (GeneID 258434)", "reagent no.": 3, "GFP, % of control": 62.3, "viability (ATP), % of control": 56.2}
{"gene": "Zfp711 (GeneID 245595)", "reagent no.": 1, "GFP, % of control": 80.5, "viability (ATP), % of control": 84.5}
{"gene": "Zfp711 (GeneID 245595)", "reagent no.": 2, "GFP, % of control": 44.6, "viability (ATP), % of control": 62.8}
{"gene": "Ston2 (GeneID 108800)", "reagent no.": 1, "GFP, % of control": 102, "viability (ATP), % of control": 44.6}
{"gene": "Ston2 (GeneID 108800)", "reagent no.": 2, "GFP, % of control": 85.6, "viability (ATP), % of control": 106}
{"gene": "Ston2 (GeneID 108800)", "reagent no.": 3, "GFP, % of control": 110, "viability (ATP), % of control": 126}
{"gene": "Fam78b (GeneID 226610)", "reagent no.": 1, "GFP, % of control": 20.1, "viability (ATP), % of control": 28.1}
{"gene": "Fam78b (GeneID 226610)", "reagent no.": 2, "GFP, % of control": 96, "viability (ATP), % of control": 103}
{"gene": "Fam78b (GeneID 226610)", "reagent no.": 3, "GFP, % of control": 99.2, "viability (ATP), % of control": 96.2}

Taken from above.
For “viability (ATP), % of control”, Utp3 (GeneID 65961) #1 shows 51.6
Result for Ugt1a9 (GeneID 394434) #3 under “GFP, % of control”: 41.8
Ugt1a9 (GeneID 394434) #1, GFP, % of control → 107
Result for Ston2 (GeneID 108800) #1 under “GFP, % of control”: 102
Or10d1c (GeneID 258434) #3, GFP, % of control → 62.3
Result of Fgfr4 (GeneID 14186) in “viability (ATP), % of control”: 84.9
